Source: article PMC10440987, “SLG2 specifically regulates grain width through WOX11 ‐mediated cell expansion control in rice”

Tests used:
[1] = target: SLG2 (SLENDER GUY2), yeast two-hybrid fusion (rice); experiment: two-hybrid; SLG2 as bait against a cDNA library from young panicles; coding sequences in pGADT7 or pGBKT7, co-transformed into Golden Yeast; growth on SD/-Leu-Trp-His-Ade
[2] = target: SLG2, BiFC fusion with a half of Venus YFP (rice); experiment: split reporter; BiFC with halves of Venus YFP in rice protoplasts; confocal microscopy after 16 h at 28 °C in the dark
[3] = target: GST-SLG2 (rice); experiment: pull-down; GST pull-down in vitro, GST-SLG2 or free GST as bait, MBP-WOX11 as prey; immunoblot with anti-GST and anti-MBP

B1: WOX11, yeast two-hybrid fusion (protein, UniProt Q0D3I7 1-262)
chain: MDGGHSPDRHAAAAAGEPVRSRWTPKPEQILILESIFNSGMVNPPKDETVRIRKLLERFGAVGDANVFYWFQNRRSRSRRRQRQLQAQAQAAAAAASSGSPPTASSGGLAPGHAGSPASSLGMFAHGAAGYSSSSSSSWPSSPPSVGMMMGDVDYGGGGDDLFAISRQMGYMDGGGGSSSSAAAGQHQQQQLYYSCQPATMTVFINGVATEVPRGPIDLRSMFGQDVMLVHSTGALLPANEYGILLHSLQMGESYFLVTRSS
binding [1]: binds

B2: WOX11, BiFC fusion with a half of Venus YFP (protein, UniProt Q0D3I7 1-262)
chain: B1 chain
binding [2]: binds

B3: MBP-WOX11 (protein, UniProt Q0D3I7 1-262)
chain: B1 chain
binding [3]: binds

Results are given in words; binding and its absence hold for the method and conditions named. Binding can be weak; no strength is given. Sequences can lack the tags named with a protein. For part of these data: In cells and extracts the contact can be indirect.
